According to article PMC8657912, “Substrate-Dependent Trans-Stimulation of Organic Cation Transporter 2 Activity” (International Journal of Molecular Sciences, 2021):

Assays:
human OCT2 [1] = biological target: T1, human OCT2 (Homo sapiens, UniProt O15244); experiment: Uptake trans-stimulation assay of OCT2-mediated DiASP uptake in HEK-OCT2 cells; type: cell-based; parameters: host or cells: HEK293 (HEK-OCT2); conditions: HEK-OCT2 cells preloaded 30 min 37 °C, washed, then 10 µM DiASP 5 min
T1 sequence (O15244 1-555): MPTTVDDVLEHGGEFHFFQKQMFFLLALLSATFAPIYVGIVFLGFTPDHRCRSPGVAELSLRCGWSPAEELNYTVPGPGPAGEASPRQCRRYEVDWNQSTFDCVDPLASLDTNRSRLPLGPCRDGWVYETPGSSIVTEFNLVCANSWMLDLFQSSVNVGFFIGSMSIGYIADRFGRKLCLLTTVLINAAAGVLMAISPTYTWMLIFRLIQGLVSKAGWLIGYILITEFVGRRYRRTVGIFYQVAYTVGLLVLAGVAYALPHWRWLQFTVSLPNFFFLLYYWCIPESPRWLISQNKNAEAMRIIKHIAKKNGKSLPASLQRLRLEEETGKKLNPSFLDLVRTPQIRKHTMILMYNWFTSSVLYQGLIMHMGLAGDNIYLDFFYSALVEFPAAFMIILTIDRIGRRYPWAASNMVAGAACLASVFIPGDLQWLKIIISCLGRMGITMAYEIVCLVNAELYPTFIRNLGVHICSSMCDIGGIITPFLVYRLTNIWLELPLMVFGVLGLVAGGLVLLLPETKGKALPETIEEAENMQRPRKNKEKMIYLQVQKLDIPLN
Protocol: Uptake trans-stimulation assays were performed as schematically depicted in Figure 4.
Figure 4 Schematic representation of the various steps of the trans-stimulation assay performed for investigating OCT2 substrates (created with biorender.com). Step 1 corresponds to the initial incubation of cells without (Control) or with candidate substrate for 30 min at 37 °C. Step 2 consists of the incubation of cells with the reference tracer substrate (DiASP) for 5 min at 37 °C. Step 3 is the measurement of cellular accumulation of DiASP through spectrofluorimetry.
(§1) They were cultured in Dulbecco’s modified Eagle medium (DMEM) (Life Technologies, Carlsbad, CA, USA), supplemented with 10% (vol/vol) fetal calf serum, 10 IU/mL penicillin, 10 μg/mL streptomycin, 1% non-essential amino acids, and 1 μg/mL insulin, as already reported.
OCT2 trans-stimulation assays were performed through monitoring cellular uptake of the tracer substrate DiASP. As schematically depicted in Figure 4, HEK-OCT2 cells were first incubated in the absence (control) or presence of different concentrations of OCT2 substrates for 30 min at 37 °C in the transport assay medium described above. […] Cellular accumulation of the fluorescence dye was next determined by spectrofluorimetry, as reported above. Data were commonly expressed as % of DiASP uptake in control cells, set at 100%, or as fluorescence arbitrary units (FAU)/mg protein.

human OCT2 [2] = biological target: T1, human OCT2; experiment: Cis-inhibition of OCT2-mediated DiASP uptake in HEK-OCT2 cells
Protocol: as §1
Cis-inhibition of OCT2 activity was analysed as previously described. Briefly, HEK-OCT2 cells were incubated with 10 µM DiASP, in the absence (control) of the presence of 100 µM amitriptyline (used here as a reference inhibitor of OCT2 activity) or of various concentrations of the OCT2 substrates, for 5 min. The transport assay medium consisted of 5.3 mM KCl, 1.1 mM KH2PO4, 0.8 mM MgSO4, 1.8 mM CaCl2, 11 mM dextrose, 10 mM HEPES, and 136 mM NaCl, adjusted to pH = 7.4. Next, cells were washed with phosphate-buffered saline (PBS) and lysed in distilled water. Intracellular accumulation of DiASP was then determined by spectrofluorimetry using a PerkinElmer Enspire spectrofluorometer (Waltham, MA, USA); excitation and emission wavelengths were 485 nm and 607 nm, respectively. DiASP accumulation values were thereafter normalized to total protein content, determined by the Bradford method.
IC50 values of OCT2 substrates towards OCT2-mediated uptake of DiASP and the corresponding 95% confidence intervals were determined from nonlinear regression of concentration-response data, based on the four-parameter logistic function. […]

## CC(C)[N+]1(C)[C@@H]2CC[C@H]1C[C@@H](OC(=O)C(CO)c1ccccc1)C2 (some centres unmarked) [Ipratropium, ipratropium]
Human OCT2 [1]
  Lowest trans-inhibiting concentration towards DiASP uptake: 1 µM
Human OCT2 [2]
  IC50: 240 nM
